From article PMC8845511
Results are given in words; binding and its absence hold for the method and conditions named. Some binding calls cover weakened binding; strength is not graded here.

By UniProt entry, the sequences of proteins in these tests, tags left out.
UniProt Q6P9J9: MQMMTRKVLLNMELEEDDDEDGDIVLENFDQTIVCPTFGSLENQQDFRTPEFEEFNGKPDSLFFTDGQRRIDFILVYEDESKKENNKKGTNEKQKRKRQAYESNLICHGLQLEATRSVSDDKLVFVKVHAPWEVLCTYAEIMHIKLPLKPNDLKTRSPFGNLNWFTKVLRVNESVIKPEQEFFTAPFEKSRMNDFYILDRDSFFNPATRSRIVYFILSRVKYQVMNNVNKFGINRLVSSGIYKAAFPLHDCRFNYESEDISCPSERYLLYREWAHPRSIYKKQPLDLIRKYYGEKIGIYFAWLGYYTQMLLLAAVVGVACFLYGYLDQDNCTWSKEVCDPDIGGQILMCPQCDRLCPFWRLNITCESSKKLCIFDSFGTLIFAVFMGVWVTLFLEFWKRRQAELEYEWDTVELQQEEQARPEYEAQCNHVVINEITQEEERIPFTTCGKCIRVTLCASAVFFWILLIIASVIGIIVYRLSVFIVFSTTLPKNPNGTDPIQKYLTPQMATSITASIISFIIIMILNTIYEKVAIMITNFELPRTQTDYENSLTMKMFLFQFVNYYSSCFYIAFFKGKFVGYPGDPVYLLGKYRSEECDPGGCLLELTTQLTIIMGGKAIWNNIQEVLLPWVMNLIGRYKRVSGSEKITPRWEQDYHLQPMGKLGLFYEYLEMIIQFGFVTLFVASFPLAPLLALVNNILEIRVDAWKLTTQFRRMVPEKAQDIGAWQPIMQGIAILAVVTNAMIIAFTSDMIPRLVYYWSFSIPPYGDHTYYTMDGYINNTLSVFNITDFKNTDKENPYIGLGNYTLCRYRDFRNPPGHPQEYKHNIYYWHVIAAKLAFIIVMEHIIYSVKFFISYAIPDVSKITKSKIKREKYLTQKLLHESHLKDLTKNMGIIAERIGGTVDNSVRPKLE

Biological target: TMEM16F (UniProt Q6P9J9)
Test: cryo-EM structure; TMEM16F in lipid nanodiscs with Ca2+ and PIP2, with or without niclosamide or 1PBC; single particle cryo-EM of tilted specimen; no symmetry imposed (C1); both purified

- binding: binds
Substance: TMEM16F (from UniProt Q6P9J9 1-911)
